This is an account of results in PubChem BioAssay AID493014 (National Center for Advancing Translational Sciences (NCATS), 2011).

This is one part of the list. These are further read-outs of the screen, such as a control signal, another cell line or another target. No call is given for them. Compounds called inactive in the main read-out are mostly missing here. Words in brackets tell the shape of the fitted curve; partial curves, single points and poor fits give uncertain potencies.

The test can be described thus: qHTS Assay to Find Inhibitors of Chronic Active B-Cell Receptor Signaling. The settings on record: ABC-DLBCL IkBa-CBG/CBR reporter, luminescence ratio (green luciferase fused to IkBa over red control in TMD8 lymphoma cells), 4 h. An outline of the steps:
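TMD8 human ABC-DLBCL cells with doxycycline-inducible IκBα–green luciferase fusion and unfused red luciferase, in 0.5% FBS medium; compounds up to 46 uM, 4 h at 37C. Green/red luminescence ratio, filter-overlap corrected, fitted to concentration-response curves.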
(In qHTS, concentration-response curves come from the screen itself.)

The mark [1] stands for this setting: measured here: CBR red luminescence, cell number.
The mark [2] stands for this setting: measured here: IkBa-CBG green luminescence.

For the molecule `Cc1cc(SCc2ccc(Cl)c(Cl)c2)nc(=O)[nH]1`, under setting [1], the AC50 (in general, the concentration at which the activity in the assay is half-maximal) is 7.08 µM [rising, full curve, poor fit].
`COc1ccc(-c2cc3nc4c(c(=O)n3[nH]2)CCC4)cc1`: the AC50 under setting [1] was 4.11 µM [falling, full curve, poor fit].
Regarding `CCOC(=O)N1CCN(c2ccnc3cc(Cl)ccc23)CC1`, under setting [1], the AC50 is 15.8 µM [falling, single point].
As for `COc1ccc(/C=C2\SC(=S)N(CCC(=O)NC3=NCCS3)C2=O)cc1OC`, under setting [1], the AC50 is 1.84 µM [falling, full curve].
On to `COC(=O)c1ccc(COC(=O)CNC(=O)CNC(=O)c2ccc(C)cc2)cc1`, for which the AC50 under setting [1] was 35.5 µM [rising, single point].
On to `COc1ccc(CN(C(=O)c2cc3ccccc3oc2=O)C2CCCCC2)cc1OC`, for which, under setting [1], the AC50 was 29.1 µM [falling, single point].
In the case of `COc1cc(/C=N/O)cc(Cl)c1OC`, the AC50 under setting [1] was 1.03 µM [rising, full curve, poor fit].
Consider `CCc1ccc(N=Nc2ccc(O)c3[nH]cnc23)cc1`, for which the AC50 under setting [1] was 1.16 µM [rising, full curve] and the AC50 under setting [2] was 25.9 µM [falling, single point].
`O=C(COC(=O)c1ccc(O)cc1O)Nc1cccc2ccccc12`: the AC50 under setting [1] is 3.66 µM [falling, partial curve].
`COc1ccc(/C=C\C(=O)c2c(O)ccc3c(C)cc(=O)oc23)cc1`: the AC50 under setting [1] was 23.1 µM [falling, single point].
`COc1ccc(-c2nc3scc(CCNS(=O)(=O)c4cccs4)n3n2)cc1`: under setting [1], the AC50 is 35.5 µM [falling, single point].
As for `CN1CCN(C(=O)c2cc(COc3c(F)cccc3F)on2)CC1c1ccccc1` (stereo not drawn), the AC50 by setting is: under setting [1], 35.5 µM [falling, single point]; under setting [2], 17.8 µM [rising, single point].
Take `CO/N=C/c1ccc(N2CCN(C(=O)c3cccc(C(F)(F)F)c3)CC2)c([N+](=O)[O-])c1`: the AC50 under setting [1] was 20.6 µM [falling, partial curve, poor fit].
Take `CCn1ncc(C2=NOC(C(=O)NCc3ccc(Cl)cc3)C2)c1C` (stereo not drawn): the concentration at half-maximal activity (AC50) under setting [1] is 7.08 µM [rising, full curve] and the AC50 under setting [2] is 8.91 µM [falling, partial curve].
`Cc1cc(SCC(=O)N/N=C/c2ccc(C(=O)O)cc2)nc2ccccc12`: the AC50 under setting [1] is 7.08 µM [falling, partial curve, poor fit].
`COc1ccc(-c2nc(-c3ccccc3OC)no2)cc1OC`: under setting [1], the AC50 is 14.1 µM [falling, partial curve, poor fit].
`CCOC(=O)/C(=N/Nc1ccc(C)cc1)S(=O)(=O)c1ccc(Cl)cc1`: the AC50 under setting [1] is 0.146 µM [falling, full curve, poor fit].
`COC(=O)c1ccc(/C(O)=C(\C#N)c2nc3ccccc3s2)cc1`: the AC50 under setting [1] was 0.562 µM [falling, full curve, poor fit].
For the molecule `COc1cccc(N(CC(=O)O)S(=O)(=O)c2ccccc2)c1`, under setting [1], the AC50 was 0.184 µM [falling, full curve, poor fit].
For the molecule `CCOc1ccc(NC(=S)Nc2ccc(OC)cc2)cc1`, under setting [1], the AC50 was 22.4 µM [rising, partial curve, poor fit].
For the molecule `COc1cc(/C=N\Nc2nc3ccccc3o2)cc(OC)c1OC`, the AC50 is, setting by setting: under setting [1], 14.6 µM [falling, single point]; under setting [2], 3.26 µM [rising, full curve, poor fit].
In the case of `CCOC(=O)c1c(-c2ccccc2)csc1NC(=O)CSc1nnnn1C`, the AC50 under setting [1] is 0.112 µM [falling, full curve, poor fit].
`COc1ccc(N2CC(C(=O)Nc3nnc(SCc4cccnc4)s3)CC2=O)cc1` (stereo not drawn): the AC50 under setting [1] is 1.58 µM [rising, single point].
The same measure, in the same setting: the result for `CCOC(=O)C1=C(CSc2nc(CC)c(C)cc2C#N)OC(N)=C(C#N)C1c1ccccc1` (stereo not drawn) reads 29.1 µM [falling, partial curve, poor fit].
As for `CCCCN1C(=O)C(=O)N(c2ccccc2)C1=S`, the AC50 under setting [1] was 0.411 µM [falling, full curve, poor fit].
As for `COc1ccc(C(=O)NCC(=O)c2ccccc2)cc1`, the AC50 under setting [1] is 6.31 µM [falling, partial curve, poor fit].
The same measure, in the same setting: under `COc1cc(C(=O)NCCCNc2nc3cc(C)cc(C)c3cc2C#N)cc(OC)c1OC` stands 6.31 µM [rising, full curve, poor fit].
For `Cc1c(/C=C/C(=O)c2ccccc2)cnn1C`, under setting [1], the AC50 was 12.6 µM [falling, single point].
With `Cc1nc([N+](=O)[O-])c(Br)n1CC(=O)c1ccc(Br)cc1`, under setting [1], the AC50 is 20.6 µM [falling, partial curve].
As for `NS(=O)(=O)c1cccc(NC(=O)CSc2ncc(C(F)(F)F)cc2Cl)c1`, the AC50 under setting [1] was 0.259 µM [rising, full curve, poor fit].
For the molecule `Cc1ccc(C)c(Cn2nnc3c(=O)[nH]c(C4CCN(C(=O)c5cccs5)CC4)nc32)c1`, the half-maximal activity concentration (AC50) under setting [1] is 20.6 µM [falling, single point].
Still for that read-out and setting: under `COc1ccc(CN([C@H](CO)CC(C)C)S(=O)(=O)N(Cc2ccccc2)[C@H](CO)CC(C)C)cc1` stands 18.4 µM [falling, partial curve, poor fit]; under `C=CCc1c(C)nc(SC)nc1Nc1ccc(C(C)=O)cc1`, 22.4 µM [falling, single point]; under `C/C(=N/NC(=O)CNC(=O)C1COc2ccccc2O1)c1ccc2c(c1)OCCO2` (stereo not drawn), 35.5 µM [falling, partial curve, poor fit].
Take `CCOC(=O)N1C=CC(C)=C[C@@H]2[C@@H](N3C(=O)c4ccccc4C3=O)C(=O)N21`: the AC50 under setting [1] was 20.6 µM [rising, partial curve, poor fit].
Consider `CC(=O)NC(c1ccco1)c1ccc2cccnc2c1O` (stereo not drawn), for which the AC50 under setting [1] is 15.8 µM [falling, partial curve] and the AC50 under setting [2] is 11.2 µM [falling, partial curve, poor fit].
As for `Cc1ccc2scc(N3CCCC(C)C3)c(=O)c2c1` (stereo not drawn), under setting [1], the AC50 is 31.6 µM [falling, single point].
For the molecule `COc1ccc(-n2c(SCC(=O)Nc3ccc(Br)cc3)nc(O)cc2=O)cc1`, the AC50 under setting [1] was 35.5 µM [falling, single point].
Consider `CCN(CC)CCN1C(=O)C(O)=C(C(=O)c2cc3cccc(OC)c3o2)C1c1cccs1` (stereo not drawn), for which, under setting [1], the AC50 is 1.26 µM [rising, full curve].
Regarding `CCc1noc(C)c1C(=O)Nc1ccc(-c2nnc3n2CCCCC3)cc1`, the AC50 under setting [1] is 29.1 µM [rising, single point].
Consider `O=[N+]([O-])c1cc([N+](=O)[O-])c2cc3ccccc3nc2c1`, for which the AC50 under setting [1] is 2.82 µM [falling, single point].
As for `CCOc1ccc(C(C)=O)cc1COc1ccc(-c2nnco2)cc1`, the AC50 under setting [1] was 15.8 µM [falling, single point].
In the case of `CCc1cc(=O)n2[nH]c(C)c(-c3ccc(OC)cc3)c2n1`, the AC50 under setting [1] was 35.5 µM [falling, single point].
In the case of `CN(C)CCCNC(=O)c1cc(Br)ccc1O`, the AC50 under setting [1] was 3.98 µM [rising, partial curve, poor fit].
Consider `O=C(NC1CCCCC1)c1ccc(S(=O)(=O)c2ccccc2)cc1`, for which, under setting [1], the AC50 was 3.98 µM [rising, full curve, poor fit].
Take `COC(=O)C1CCN(C(=O)COc2cc3sc(C)nc3c3sccc23)CC1`: the AC50 under setting [1] was 1.46 µM [falling, partial curve, poor fit].
For the molecule `COc1cccc(CN(C)C(=O)C2CCN(S(=O)(=O)c3cccs3)CC2)c1OC`, the AC50 under setting [1] is 2.59 µM [rising, full curve, poor fit].
Regarding `O=S(=O)(N/N=C/c1cn(Cc2ccccc2)c2ccccc12)c1ccccc1`, the AC50 under setting [1] was 15.8 µM [falling, single point].
As to `Cc1ccc(S(=O)(=O)NCC2CCC(C(=O)NCc3ccco3)CC2)cc1` (stereo not drawn), the AC50 runs as follows: under setting [1], 3.66 µM [falling, single point]; under setting [2], 4.61 µM [rising, single point].
Consider `CC(C)CCN1CCN(Cc2cccc(-n3cccn3)c2)CC1CCO` (stereo not drawn), for which the AC50 under setting [1] was 1.58 µM [rising, partial curve, poor fit].
Regarding `COc1ccccc1NC(=O)CSc1nnc(C)n1CCc1ccccc1`, the AC50 under setting [1] was 25.1 µM [falling, single point].
The same measure, in the same setting: the result for `CS(=O)(=O)N1CCC(C(=O)Nc2ccccc2Sc2ccccc2)CC1` reads 23.1 µM [rising, single point]; that for `C=CCN=Cc1sc2ccc(OCC)cc2c1O`, 3.26 µM [rising, single point].
As for `Cc1ccc(NS(=O)(=O)c2sc3ccc(Cl)cc3c2C)cc1`, the AC50 under setting [1] was 14.1 µM [falling, partial curve, poor fit].
As for `O=C(NCCCNCCCNC(=O)c1ccccn1)c1ccccn1`, the AC50 under setting [1] was 2.31 µM [rising, full curve, poor fit].
Turning to `COC(=O)c1c(NC(=O)CS(=O)(=O)c2ccc(C)cc2)sc2c1CCCCC2`, the AC50 under setting [1] is 8.91 µM [rising, single point].
Still for that read-out and setting: under `CC1CCc2nc(NC(=O)c3cc(C(C)(C)C)nn3C)sc2C1` (stereo not drawn) stands 12.6 µM [rising, single point]; under `NC(=O)c1c(NC(=O)COC(=O)c2ccc(O)c(Cl)c2)sc2c1CCCC2`, 2.91 µM [falling, single point]; under `COc1ccc(OC)c(-n2nnnc2SCC(=O)Nc2nc(C)c(C)s2)c1`, 14.6 µM [falling, single point].
Turning to `O=c1c2cccc3c2c(nn1CN1CCOCC1)-c1ccccc1-3`, under setting [1], the AC50 was 25.1 µM [falling, partial curve, poor fit].
The same measure, in the same setting: the result for `CN1CCN(Cc2oc(CO)cc(=O)c2O)CC1` reads 0.103 µM [falling, full curve, poor fit]; that for `Cc1ccc(-c2csc3nc(C)n(N)c(=O)c23)o1`, 0.0058 µM [rising, full curve, poor fit].
